In the assay the target is GFP-Scrib (UniProt Q14160). Briefly: co-IP; A549 cell lysates (parental, stably expressing GFP-Scrib or Neon-Lgl1 forms, or tet-shLgl1 without Dox) in NP-40 buffer (20 mM Tris pH 8, 150-200 mM NaCl, 0.5 mM EDTA, 1% NP-40, 1 mM DTT, 5% glycerol); antibody 2 h at 4°C, protein A/G beads, three washes, Western blot; IgG as negative …. Background: A western blot detects proteins with antibodies after separation by electrophoresis.

Amino acid sequences for entries named in this document (tags omitted). A change or cut given only in a name is not applied to a line headed by its entry.
UniProt Q14160: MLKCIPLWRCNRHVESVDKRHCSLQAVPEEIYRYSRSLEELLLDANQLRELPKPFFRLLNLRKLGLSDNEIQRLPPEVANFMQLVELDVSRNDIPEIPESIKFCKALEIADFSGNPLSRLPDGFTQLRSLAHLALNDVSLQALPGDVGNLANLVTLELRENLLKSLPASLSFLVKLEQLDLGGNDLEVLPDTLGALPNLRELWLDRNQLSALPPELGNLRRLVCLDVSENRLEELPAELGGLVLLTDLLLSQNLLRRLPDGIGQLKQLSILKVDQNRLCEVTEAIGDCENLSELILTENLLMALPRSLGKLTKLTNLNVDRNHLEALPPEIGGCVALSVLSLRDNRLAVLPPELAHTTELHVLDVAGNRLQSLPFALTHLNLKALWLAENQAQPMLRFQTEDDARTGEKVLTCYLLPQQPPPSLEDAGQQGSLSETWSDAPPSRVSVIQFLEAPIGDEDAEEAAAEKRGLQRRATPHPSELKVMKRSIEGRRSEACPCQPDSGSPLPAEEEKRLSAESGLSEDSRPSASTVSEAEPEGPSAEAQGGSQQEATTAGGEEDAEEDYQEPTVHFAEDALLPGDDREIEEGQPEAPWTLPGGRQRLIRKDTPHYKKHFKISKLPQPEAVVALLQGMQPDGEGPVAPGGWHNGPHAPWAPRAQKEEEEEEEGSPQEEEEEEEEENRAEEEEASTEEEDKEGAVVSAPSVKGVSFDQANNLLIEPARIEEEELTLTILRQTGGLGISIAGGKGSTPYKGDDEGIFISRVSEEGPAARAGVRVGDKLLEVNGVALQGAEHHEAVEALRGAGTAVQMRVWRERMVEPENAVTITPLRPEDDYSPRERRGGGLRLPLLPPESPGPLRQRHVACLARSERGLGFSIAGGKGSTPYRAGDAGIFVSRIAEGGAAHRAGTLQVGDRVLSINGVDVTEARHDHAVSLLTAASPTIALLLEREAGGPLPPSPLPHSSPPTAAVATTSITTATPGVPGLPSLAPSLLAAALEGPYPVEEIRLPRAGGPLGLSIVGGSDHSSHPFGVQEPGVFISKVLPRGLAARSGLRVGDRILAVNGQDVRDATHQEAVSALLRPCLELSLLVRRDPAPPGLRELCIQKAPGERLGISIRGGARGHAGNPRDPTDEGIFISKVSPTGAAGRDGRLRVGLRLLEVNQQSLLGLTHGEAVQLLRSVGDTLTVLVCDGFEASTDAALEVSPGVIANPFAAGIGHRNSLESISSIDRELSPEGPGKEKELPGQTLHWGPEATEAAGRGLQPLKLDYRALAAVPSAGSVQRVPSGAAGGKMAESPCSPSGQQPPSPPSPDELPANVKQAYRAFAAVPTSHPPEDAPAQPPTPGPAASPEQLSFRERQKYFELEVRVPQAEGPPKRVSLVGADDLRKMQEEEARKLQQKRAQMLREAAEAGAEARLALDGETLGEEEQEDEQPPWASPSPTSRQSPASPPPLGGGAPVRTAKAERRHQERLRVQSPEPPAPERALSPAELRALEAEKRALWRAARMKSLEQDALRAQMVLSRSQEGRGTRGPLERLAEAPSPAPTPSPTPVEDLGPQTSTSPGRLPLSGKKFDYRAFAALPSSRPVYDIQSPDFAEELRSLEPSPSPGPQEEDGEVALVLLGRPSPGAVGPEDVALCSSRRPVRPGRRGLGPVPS
UniProt P35221: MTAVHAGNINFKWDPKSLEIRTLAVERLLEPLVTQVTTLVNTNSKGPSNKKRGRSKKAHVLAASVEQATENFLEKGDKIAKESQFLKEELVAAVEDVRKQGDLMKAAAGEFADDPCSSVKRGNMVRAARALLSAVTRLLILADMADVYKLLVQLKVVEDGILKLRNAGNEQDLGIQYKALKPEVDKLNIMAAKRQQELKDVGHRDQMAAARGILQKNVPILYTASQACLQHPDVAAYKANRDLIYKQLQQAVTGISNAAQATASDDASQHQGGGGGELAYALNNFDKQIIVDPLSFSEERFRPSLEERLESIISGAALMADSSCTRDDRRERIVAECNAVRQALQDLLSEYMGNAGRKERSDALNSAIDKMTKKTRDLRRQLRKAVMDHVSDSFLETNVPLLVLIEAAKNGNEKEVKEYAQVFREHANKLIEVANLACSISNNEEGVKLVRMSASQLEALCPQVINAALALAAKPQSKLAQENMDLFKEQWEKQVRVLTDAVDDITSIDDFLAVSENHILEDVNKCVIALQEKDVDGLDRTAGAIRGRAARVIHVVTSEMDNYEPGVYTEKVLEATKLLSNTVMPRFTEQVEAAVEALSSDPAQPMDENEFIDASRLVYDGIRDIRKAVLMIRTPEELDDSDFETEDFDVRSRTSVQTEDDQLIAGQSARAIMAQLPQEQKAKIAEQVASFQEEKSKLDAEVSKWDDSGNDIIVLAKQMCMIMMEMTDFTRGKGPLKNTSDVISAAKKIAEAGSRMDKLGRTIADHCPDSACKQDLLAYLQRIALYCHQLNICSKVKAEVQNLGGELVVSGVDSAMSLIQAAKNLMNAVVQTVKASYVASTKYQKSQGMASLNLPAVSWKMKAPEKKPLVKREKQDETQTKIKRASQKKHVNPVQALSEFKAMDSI

These are yes or no findings as the source states them, for the method shown. In cells and extracts the contact can be indirect. Binding can be weak; no strength is given.

As to “α-catenin (endogenous) (from UniProt P35221 1-906)”, the binding entry is listed as “binds”.

B1: Lgl1 (endogenous) (protein, UniProt Q15334 1-1064)
chain: MMKFRFRRQGADPQREKLKQELFAFNKTVEHGFPNQPSALAFDPELRIMAIGTRSGAVKIYGAPGVEFTGLHRDAATVTQMHFLTGQGRLLSLLDDSSLHLWEIVHHNGCAHLEEALSFQLPSRPGFDGASAPLSLTRVTVVLLVAASDIAALGTEGSSVFFLDVTTLTLLEGQTLAPGEVLRSVPDDYRCGKALGPVESLQGHLRDPTKILIGYSRGLLVIWNQASQCVDHIFLGNQQLESLCWGRDSSTVVSSHSDGSYAVWSVDAGSFPTLQPTVATTPYGPFPCKAINKILWRNCESGGHFIIFSGGMPRASYGDRHCVSVLRAETLVTLDFTSRIIDFFTVHSTRPEDEFDDPQALAVLLEEELVVLDLQTPGWPAVPAPYLAPLHSSAITCSAHVASVPAKLWARIVSAGEQQSPQPVSSALSWPITGGRNLAQEPSQRGLLLTGHEDGTVRFWDASGVALRPLYKLSTAGLFQTDCEHADSLAQAAEDDWPPFRKVGCFDPYSDDPRLGVQKVALCKYTAQMVVAGTAGQVLVLELSDVPVEQAVSVAIIDLLQDREGFTWKGHERLSPRTGPLPWPAGFQPRVLVQCLPPAAVTAVTLHTEWSLVAFGTSHGFGLFDYQRKSPVLARCTLHPNDSLAMEGPLSRVKSLKKSLRQSFRRIRKSRVSGKKRAANASSKLQEANAQLAEQACPHDVEMTPVQRRIEPRSADDSLSGVVRCLYFADTFLRDGAHHGPTMWAGTNSGSVFAYALEVPAAAVGGEKRPEQAVEAVLGKEVQLMHRAPVVAIAVLDGRGRPLPEPYEASRDLAQAPDMQGGHAVLIASEEQFKVFTLPKVSAKTKFKLTAHEGCRVRKVALATFASVACEDYAETCLACLTNLGDVHVFSVPGLRPQVHYSCIRKEDISGIASCVFTRHGQGFYLISPSEFERFSLSARNITEPLCSLDINWPRDATQASYRIRESPKLSQANGTPSILLAPQSLDGSPDPAHSMGPDTPEPPEAALSPMSIDSATSADTTLDTTGDVTVEDVKDFLGSSEESEKNLRNLAEDEAHACAILIK
In the case of B1, the binding result is on record as “binds”.
